Publication PMC6737228
Changes are numbered by the printed parent chain. Names and notes keep the numbering of the source. These are yes or no findings as the source states them, for the method shown. In cells and extracts the contact can be indirect. Some entries that bind do so weakly or less than the wild type. For some assays here: Sequences can lack the tags named with a protein. Blank lines part the entries; values can stand above or below the molecule they belong to.

Amino acid sequences for entries named in this document (tags omitted).
UniProt P62140: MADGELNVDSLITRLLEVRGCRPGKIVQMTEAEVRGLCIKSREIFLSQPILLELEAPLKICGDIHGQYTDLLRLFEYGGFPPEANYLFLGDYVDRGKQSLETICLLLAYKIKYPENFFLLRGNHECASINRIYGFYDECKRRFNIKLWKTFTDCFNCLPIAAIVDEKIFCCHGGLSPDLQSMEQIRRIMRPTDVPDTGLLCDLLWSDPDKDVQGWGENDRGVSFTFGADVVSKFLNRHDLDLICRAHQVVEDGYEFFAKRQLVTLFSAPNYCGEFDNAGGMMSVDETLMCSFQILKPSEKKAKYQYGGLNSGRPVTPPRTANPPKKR
UniProt P35579: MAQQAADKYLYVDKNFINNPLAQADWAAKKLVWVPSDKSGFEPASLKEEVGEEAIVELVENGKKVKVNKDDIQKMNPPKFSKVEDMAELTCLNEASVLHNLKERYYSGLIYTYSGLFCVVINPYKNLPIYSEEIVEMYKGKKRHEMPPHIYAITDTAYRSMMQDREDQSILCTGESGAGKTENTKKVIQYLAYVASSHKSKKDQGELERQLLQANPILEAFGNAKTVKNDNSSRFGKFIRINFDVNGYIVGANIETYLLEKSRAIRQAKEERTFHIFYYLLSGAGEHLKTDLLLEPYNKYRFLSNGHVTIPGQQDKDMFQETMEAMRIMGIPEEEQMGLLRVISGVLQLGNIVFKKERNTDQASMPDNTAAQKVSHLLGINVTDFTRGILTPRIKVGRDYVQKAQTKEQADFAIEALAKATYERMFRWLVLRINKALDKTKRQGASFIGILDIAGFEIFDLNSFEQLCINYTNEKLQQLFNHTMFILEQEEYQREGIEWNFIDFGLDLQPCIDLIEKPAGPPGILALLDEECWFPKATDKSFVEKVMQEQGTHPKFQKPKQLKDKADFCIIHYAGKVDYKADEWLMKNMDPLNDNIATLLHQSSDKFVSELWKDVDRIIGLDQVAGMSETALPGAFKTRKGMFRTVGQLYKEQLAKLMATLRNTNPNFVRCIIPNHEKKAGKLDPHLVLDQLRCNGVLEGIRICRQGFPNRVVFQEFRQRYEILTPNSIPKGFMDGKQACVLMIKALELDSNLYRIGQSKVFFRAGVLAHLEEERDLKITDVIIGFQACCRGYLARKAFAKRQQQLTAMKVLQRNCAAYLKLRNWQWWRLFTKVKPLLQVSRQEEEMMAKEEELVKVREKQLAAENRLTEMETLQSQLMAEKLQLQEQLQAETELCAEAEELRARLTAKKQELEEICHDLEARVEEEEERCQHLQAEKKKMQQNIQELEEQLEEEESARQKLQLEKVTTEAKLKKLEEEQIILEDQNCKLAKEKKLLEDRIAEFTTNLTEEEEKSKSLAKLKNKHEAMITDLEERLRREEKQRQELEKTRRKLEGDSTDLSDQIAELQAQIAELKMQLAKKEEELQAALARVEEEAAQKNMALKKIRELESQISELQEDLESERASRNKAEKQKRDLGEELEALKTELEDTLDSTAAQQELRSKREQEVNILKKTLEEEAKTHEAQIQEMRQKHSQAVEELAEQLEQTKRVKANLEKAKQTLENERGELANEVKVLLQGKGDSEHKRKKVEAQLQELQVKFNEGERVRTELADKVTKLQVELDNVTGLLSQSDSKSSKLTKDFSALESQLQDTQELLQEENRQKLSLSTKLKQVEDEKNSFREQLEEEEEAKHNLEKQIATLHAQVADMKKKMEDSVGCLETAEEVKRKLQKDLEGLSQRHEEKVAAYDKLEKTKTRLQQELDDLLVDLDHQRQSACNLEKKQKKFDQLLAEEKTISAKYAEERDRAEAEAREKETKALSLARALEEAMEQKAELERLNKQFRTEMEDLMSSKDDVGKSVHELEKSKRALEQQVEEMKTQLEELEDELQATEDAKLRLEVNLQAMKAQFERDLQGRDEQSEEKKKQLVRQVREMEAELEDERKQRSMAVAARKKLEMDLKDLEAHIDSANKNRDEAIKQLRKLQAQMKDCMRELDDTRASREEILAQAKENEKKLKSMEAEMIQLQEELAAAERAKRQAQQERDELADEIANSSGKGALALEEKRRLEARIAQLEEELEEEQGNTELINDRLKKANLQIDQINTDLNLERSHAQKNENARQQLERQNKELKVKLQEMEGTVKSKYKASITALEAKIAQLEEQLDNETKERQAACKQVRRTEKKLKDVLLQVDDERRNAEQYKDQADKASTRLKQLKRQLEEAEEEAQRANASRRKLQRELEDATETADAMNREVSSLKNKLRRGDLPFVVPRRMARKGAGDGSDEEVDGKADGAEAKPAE

Columns and labels:
[1] = target: T1, Transforming growth factor-β membrane associated protein (TIMAP), endogenous (human (endogenous in primary human glomerular ECs)) (UniProt Q96T49); assay: co-IP; endogenous TIMAP immunoprecipitated from glomerular EC lysates with chicken anti-TIMAP IgY (control: nonimmune IgY), goat anti-chicken IgG beads, 4 °C; lysis buffer 50 mM Tris-HCl pH 7.5, 150 mM NaCl, 1.0% Nonidet P-40, 0.5% sodium deoxycholate; Western blot
T1 sequence: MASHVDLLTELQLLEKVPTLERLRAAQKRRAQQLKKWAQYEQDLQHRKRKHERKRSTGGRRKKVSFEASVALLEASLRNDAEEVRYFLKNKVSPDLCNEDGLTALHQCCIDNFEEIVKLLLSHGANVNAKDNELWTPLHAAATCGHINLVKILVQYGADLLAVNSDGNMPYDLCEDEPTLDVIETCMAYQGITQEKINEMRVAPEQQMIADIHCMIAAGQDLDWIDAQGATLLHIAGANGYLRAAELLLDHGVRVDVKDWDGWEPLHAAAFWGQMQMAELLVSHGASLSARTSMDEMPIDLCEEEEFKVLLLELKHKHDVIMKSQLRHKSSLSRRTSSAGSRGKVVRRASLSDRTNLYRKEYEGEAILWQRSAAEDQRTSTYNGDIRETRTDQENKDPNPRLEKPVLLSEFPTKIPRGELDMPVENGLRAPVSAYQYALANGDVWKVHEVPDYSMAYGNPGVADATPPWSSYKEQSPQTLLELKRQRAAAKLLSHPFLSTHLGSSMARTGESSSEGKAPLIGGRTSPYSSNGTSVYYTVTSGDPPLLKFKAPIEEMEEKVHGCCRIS

[2] = target: catalytic protein phosphatase 1 subunit PP1cβ, endogenous (human (endogenous in primary human glomerular ECs)) (UniProt P62140); assay: pull-down
[3] = target: catalytic protein phosphatase 1 subunit PP1cβ, endogenous (human (endogenous in primary human glomerular ECs)) (UniProt P62140); assay: co-IP; PP1cβ immunoprecipitated with a PP1cβ antibody from lysates of glomerular ECs overexpressing GFP-TIMAP^WT (adenoviral); Western blot

Molecule: catalytic protein phosphatase 1 subunit PP1cβ, endogenous (from UniProt P62140 1-327) (enzyme)
binding [1]: binds

B2: GFP-TIMAP^WT (protein, UniProt Q96T49 1-567)
chain: T1 sequence
binding [3]: binds

Further lines, results first:

binding [1]: binds
Molecule: Myosin IIA heavy chain, endogenous (from UniProt P35579 1-1960)

binding [2]: binds
B1: GFP-TIMAP^S333E/S337E (protein, UniProt Q96T49 1-567)
chain: T1 sequence with S333E, S337E

binding [2]: binds
B3: GFP-TIMAP^S333A/S337A (protein, UniProt Q96T49 1-567)
chain: T1 sequence with S333A, S337A
